Assay results published in article PMC10993717.
No constants are given. Whether binding was seen depends on the method and setting. In cells and extracts the contact can be indirect. Some binding calls cover weakened binding; strength is not graded here.

How the values were obtained:
[1] = molecular target: T1, Adipose triglyceride lipase (ATGL), endogenous human (human (endogenous in Chang liver cells, HepG2 cells and human liver tissue)) (UniProt Q96AD5); experiment: co-IP; endogenous proteins in lysates of Chang liver cells and HepG2 cells; 1000 μg lysate with 8 μg anti-ATGL or anti-BTRC antibody overnight at 4°C, Protein A/G Sepharose beads 4 h at 4°C, four washes with lysis buffer, western blotting; IgG as negative control
T1 sequence: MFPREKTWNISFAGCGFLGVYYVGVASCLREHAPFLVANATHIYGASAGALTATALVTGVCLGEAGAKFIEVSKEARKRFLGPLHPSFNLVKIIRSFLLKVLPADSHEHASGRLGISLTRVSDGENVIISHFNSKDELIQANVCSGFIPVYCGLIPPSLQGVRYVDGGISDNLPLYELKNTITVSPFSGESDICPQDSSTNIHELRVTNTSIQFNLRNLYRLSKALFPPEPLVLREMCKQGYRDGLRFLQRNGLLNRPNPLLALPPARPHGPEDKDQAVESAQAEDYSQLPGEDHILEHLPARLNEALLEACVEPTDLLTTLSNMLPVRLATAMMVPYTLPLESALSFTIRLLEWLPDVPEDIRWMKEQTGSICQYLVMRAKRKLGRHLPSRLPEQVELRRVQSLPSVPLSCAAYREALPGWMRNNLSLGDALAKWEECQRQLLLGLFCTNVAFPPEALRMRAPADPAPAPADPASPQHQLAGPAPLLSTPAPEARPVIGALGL

[2] = molecular target: T1, Adipose triglyceride lipase (ATGL), endogenous human (human (endogenous in Chang liver cells, HepG2 cells and human liver tissue)); experiment: co-IP; endogenous proteins in mouse and human liver tissue homogenates; 1000 μg homogenate with 8 μg anti-ATGL or anti-BTRC antibody overnight at 4°C, Protein A/G Sepharose beads 4 h at 4°C, four washes with lysis buffer, western blotting; IgG as negative control
[3] = molecular target: T2, Adipose triglyceride lipase (ATGL), human, overexpressed from plasmid (human) (UniProt Q96AD5); experiment: co-IP; lysates of HEK293A cells co-expressing BTRC and ATGL; 1000 μg lysate with 8 μg anti-ATGL or anti-BTRC antibody overnight at 4°C, Protein A/G Sepharose beads 4 h at 4°C, four washes with lysis buffer, western blotting; IgG as negative control
T2 sequence: T1 sequence

[4] = molecular target: T3, Adipose triglyceride lipase (ATGL), endogenous mouse (mouse (endogenous in mouse liver tissue)) (UniProt Q8BJ56); experiment: co-IP; endogenous proteins in mouse and human liver tissue homogenates; 1000 μg homogenate with 8 μg anti-ATGL or anti-BTRC antibody overnight at 4°C, Protein A/G Sepharose beads 4 h at 4°C, four washes with lysis buffer, western blotting; IgG as negative control
T3 sequence: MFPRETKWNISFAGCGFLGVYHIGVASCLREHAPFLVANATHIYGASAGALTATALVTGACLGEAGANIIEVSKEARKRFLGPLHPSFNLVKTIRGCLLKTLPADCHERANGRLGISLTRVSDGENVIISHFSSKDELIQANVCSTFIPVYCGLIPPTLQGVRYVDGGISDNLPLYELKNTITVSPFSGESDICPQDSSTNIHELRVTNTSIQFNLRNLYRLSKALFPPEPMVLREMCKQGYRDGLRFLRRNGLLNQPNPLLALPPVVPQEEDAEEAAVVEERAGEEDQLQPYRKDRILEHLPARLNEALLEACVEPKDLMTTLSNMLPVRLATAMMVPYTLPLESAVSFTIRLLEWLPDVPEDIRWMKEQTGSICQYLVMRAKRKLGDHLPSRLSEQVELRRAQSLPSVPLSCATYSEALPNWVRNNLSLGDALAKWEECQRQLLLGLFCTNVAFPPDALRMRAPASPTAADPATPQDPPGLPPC

Beta-transducin repeat containing (BTRC), endogenous human (from UniProt Q9Y297 1-605)
binding [1]: binds | binding [2]: binds

Beta-transducin repeat containing (BTRC), human, overexpressed from plasmid (from UniProt Q9Y297 1-605)
binding [3]: binds

B1: Beta-transducin repeat containing (BTRC), endogenous mouse (protein, UniProt Q3ULA2 1-605)
chain: MDPAEAVLQEKALKFMCSMPRSLWLGCSSLADSMPSLRCLYNPGTGALTAFQNSSEREDCNNGEPPRKIIPEKNSLRQTYNSCARLCINQETVCLTSTAMKTENCVAKAKLANGTSSMIVPKQRKLSASYEKEKELCVKYFEQWSESDQVEFVEHLISQMCHYQHGHINSYLKPMLQRDFITALPARGLDHIAENILSYLDAKSLCAAELVCKEWYRVTSDGMLWKKLIERMVRTDSLWRGLAERRGWGQYLFKNKPPDENAPPNSFYRALYPKIIQDIETIESNWRCGRHSLQRIHCRSETSKGVYCLQYDDQKIVSGLRDNTIKIWDKSTLECKRILTGHTGSVLCLQYDERVIITGSSDSTVRVWDVNAGEMLNTLIHHCEAVLHLRFNNGMMVTCSKDRSIAVWDMASPTDITLRRVLVGHRAAVNVVDFDDKYIVSASGDRTIKVWNTSTCEFVRTLNGHKRGIACLQYRDRLVVSGSSDNTIRLWDIECGACLRVLEGHEELVRCIRFDNKRIVSGAYDGKIKVWDLMAALDPRAPAGTLCLRTLVEHSGRVFRLQFDEFQIVSSSHDDTILIWDFLNDPAAHAEPPRSPSRTYTYISR
binding [4]: binds
